Experimental data taken from PMC10158032.

The chains behind the UniProt entries cited, without tags or fusion partners. Where a name states a change or a piece, a line headed by the entry shows the natural chain unless it says otherwise. Residues count along the entry.
UniProt P14780: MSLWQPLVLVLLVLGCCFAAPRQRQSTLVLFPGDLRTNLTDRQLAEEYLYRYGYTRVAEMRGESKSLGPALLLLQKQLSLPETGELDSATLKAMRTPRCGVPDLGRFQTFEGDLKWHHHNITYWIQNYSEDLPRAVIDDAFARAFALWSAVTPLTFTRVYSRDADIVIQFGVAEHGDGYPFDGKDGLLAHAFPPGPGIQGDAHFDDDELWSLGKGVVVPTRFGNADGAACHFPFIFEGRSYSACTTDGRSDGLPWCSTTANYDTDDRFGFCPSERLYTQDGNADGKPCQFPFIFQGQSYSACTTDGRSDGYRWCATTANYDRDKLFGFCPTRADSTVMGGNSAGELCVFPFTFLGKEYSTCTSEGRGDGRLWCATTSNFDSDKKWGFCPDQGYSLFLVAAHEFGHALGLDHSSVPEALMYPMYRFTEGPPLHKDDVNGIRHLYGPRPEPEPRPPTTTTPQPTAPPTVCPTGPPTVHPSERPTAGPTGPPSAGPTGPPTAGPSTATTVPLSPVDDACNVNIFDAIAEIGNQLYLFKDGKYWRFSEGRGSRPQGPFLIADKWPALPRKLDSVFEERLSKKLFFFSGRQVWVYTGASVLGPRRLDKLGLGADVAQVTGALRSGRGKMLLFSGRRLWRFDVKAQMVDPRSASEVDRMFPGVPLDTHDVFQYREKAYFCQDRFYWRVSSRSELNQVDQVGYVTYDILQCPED
UniProt Q6UX06, residues 21-510: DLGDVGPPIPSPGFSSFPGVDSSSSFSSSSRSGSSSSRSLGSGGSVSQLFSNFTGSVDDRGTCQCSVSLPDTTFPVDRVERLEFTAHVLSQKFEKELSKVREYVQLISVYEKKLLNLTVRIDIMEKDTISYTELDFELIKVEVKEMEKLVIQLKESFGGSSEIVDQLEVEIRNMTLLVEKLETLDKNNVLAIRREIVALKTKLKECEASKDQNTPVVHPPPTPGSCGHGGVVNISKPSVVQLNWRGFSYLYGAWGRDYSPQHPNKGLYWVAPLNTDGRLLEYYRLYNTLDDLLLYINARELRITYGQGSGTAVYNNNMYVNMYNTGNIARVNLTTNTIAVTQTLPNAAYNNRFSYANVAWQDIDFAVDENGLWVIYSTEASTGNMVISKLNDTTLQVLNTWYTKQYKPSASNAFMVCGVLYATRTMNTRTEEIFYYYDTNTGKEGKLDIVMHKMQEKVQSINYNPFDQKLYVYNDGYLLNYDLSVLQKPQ

What was measured:
[1] = target: Matrix metalloproteinase-9 (UniProt P14780); assay: co-IP; in 293T cells; bait, antibodies and buffer not told
[2] = target: Matrix metalloproteinase-9 (UniProt P14780); assay: co-IP; in HCT116 cells; bait, antibodies and buffer not told

binding [1]: binds
binding [2]: binds
Substance: Olfactomedin-4 (from UniProt Q6UX06 21-510)

Results are given in words; binding and its absence hold for the method and conditions named. In cells and extracts the contact can be indirect. Binding can be weak; no strength is given.
